Results on 33 targets are retold here after the supplement of paper PMC10849652.

Sequences of proteins named here, by UniProt entry; tags and fusion partners are left off. A change or cut given only in a name is not applied to a line headed by its entry.
UniProt O95232: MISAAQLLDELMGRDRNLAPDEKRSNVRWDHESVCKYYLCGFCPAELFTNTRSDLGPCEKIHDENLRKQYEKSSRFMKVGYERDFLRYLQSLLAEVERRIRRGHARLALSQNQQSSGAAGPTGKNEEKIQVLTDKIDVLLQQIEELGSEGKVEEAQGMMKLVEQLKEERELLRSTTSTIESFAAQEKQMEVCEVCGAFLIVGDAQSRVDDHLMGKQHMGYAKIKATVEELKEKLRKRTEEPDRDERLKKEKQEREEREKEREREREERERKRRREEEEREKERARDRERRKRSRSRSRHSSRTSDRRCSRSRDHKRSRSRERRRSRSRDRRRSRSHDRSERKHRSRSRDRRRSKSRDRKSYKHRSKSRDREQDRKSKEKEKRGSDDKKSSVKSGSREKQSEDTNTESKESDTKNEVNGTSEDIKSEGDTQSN
UniProt Q8WV07: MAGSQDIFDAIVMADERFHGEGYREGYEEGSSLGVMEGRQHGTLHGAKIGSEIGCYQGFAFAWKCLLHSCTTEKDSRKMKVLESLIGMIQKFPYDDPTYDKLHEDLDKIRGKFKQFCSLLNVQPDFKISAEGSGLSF
UniProt Q5SRI9: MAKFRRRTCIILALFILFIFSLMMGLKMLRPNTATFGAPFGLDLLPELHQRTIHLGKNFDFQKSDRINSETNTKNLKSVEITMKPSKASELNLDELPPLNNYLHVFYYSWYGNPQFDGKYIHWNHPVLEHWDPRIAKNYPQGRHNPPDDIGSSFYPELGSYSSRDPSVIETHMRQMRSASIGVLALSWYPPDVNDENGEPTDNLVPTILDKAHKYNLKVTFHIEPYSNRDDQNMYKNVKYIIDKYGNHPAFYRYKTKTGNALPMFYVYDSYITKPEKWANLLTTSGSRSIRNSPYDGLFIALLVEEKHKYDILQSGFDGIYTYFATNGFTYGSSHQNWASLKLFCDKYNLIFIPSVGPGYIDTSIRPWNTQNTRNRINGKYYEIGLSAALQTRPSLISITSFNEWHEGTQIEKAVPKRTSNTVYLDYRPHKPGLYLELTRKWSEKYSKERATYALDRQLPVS
UniProt Q9UPY8, whole entry, looked up: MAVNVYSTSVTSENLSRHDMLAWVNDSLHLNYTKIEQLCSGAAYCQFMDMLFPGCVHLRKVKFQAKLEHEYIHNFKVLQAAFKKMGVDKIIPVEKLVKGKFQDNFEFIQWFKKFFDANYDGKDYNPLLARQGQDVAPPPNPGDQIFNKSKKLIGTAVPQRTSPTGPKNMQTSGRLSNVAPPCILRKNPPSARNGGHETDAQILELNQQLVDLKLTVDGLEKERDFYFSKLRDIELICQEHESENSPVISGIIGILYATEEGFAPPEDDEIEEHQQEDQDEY
UniProt Q6P0Q8: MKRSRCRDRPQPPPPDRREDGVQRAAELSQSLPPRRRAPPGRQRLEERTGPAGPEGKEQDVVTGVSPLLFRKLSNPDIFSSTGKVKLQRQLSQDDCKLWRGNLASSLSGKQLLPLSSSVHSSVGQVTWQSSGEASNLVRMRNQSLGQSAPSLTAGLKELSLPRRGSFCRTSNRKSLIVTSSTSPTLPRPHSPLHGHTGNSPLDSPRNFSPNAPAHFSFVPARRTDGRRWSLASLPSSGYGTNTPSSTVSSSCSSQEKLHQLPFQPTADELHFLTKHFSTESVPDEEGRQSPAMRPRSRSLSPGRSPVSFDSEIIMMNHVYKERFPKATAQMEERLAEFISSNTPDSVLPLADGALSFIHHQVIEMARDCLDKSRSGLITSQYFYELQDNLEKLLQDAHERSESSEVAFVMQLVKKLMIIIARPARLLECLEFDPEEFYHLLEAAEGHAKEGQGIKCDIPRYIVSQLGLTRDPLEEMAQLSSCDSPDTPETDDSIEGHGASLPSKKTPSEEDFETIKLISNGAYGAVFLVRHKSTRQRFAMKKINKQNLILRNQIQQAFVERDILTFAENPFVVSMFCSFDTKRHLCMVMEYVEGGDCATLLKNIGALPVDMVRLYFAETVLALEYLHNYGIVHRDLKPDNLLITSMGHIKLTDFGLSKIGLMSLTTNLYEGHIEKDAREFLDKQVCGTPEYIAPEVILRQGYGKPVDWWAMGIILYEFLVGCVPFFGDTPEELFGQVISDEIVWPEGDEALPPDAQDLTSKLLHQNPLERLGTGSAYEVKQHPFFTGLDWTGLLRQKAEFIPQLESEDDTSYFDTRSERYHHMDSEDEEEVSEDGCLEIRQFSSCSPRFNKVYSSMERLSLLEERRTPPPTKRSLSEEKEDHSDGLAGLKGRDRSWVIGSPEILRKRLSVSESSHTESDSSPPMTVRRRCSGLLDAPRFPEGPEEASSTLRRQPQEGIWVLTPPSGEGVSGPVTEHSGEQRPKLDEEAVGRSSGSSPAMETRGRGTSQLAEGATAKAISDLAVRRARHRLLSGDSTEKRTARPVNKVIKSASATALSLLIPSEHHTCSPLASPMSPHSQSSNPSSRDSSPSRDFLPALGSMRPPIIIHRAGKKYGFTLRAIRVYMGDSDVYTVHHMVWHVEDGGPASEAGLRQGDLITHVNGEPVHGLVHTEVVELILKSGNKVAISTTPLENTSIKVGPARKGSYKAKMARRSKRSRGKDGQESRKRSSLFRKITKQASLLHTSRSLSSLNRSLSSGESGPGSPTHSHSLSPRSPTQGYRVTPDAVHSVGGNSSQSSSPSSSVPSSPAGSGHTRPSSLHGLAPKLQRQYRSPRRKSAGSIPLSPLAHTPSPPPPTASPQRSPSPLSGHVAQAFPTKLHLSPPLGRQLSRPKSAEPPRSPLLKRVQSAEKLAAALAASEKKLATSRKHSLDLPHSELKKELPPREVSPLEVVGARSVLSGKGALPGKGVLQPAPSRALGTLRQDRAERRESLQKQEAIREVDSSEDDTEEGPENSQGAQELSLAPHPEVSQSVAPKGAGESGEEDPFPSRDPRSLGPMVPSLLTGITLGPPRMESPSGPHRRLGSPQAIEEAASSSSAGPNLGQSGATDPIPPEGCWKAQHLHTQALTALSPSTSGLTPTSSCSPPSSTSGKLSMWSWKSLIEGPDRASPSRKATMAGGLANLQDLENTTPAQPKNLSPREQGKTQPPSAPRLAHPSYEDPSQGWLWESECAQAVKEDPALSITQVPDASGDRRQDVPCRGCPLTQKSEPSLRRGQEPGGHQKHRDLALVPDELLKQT
UniProt P27816: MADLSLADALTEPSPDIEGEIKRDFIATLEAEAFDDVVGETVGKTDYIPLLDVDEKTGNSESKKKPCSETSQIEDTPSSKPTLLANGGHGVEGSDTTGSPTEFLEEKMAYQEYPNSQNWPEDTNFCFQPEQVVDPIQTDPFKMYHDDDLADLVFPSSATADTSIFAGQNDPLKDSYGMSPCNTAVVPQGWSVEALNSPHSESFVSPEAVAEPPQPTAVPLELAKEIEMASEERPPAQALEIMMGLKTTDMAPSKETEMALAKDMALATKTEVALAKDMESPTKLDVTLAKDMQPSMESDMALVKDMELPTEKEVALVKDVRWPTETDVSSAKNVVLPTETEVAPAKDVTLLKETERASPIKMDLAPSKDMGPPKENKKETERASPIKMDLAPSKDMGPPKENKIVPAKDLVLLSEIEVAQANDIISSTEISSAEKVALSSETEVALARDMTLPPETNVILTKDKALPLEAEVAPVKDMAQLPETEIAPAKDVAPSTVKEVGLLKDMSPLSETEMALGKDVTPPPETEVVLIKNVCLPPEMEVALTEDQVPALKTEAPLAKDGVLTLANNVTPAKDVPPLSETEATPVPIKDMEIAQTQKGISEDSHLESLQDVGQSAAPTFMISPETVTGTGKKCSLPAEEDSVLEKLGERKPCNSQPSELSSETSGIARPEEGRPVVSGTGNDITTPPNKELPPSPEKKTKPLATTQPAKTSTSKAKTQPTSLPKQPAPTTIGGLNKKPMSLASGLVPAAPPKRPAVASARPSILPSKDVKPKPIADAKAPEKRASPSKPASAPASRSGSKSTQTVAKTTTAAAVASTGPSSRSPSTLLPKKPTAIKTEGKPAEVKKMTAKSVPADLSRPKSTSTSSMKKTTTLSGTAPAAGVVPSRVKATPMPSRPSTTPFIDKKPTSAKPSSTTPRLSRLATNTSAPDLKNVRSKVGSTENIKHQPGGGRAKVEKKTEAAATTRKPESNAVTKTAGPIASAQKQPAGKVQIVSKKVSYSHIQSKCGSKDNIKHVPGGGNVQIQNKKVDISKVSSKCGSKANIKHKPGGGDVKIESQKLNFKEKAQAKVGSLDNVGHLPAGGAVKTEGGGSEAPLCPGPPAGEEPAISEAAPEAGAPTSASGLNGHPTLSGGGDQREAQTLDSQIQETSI
UniProt Q9Y4K4: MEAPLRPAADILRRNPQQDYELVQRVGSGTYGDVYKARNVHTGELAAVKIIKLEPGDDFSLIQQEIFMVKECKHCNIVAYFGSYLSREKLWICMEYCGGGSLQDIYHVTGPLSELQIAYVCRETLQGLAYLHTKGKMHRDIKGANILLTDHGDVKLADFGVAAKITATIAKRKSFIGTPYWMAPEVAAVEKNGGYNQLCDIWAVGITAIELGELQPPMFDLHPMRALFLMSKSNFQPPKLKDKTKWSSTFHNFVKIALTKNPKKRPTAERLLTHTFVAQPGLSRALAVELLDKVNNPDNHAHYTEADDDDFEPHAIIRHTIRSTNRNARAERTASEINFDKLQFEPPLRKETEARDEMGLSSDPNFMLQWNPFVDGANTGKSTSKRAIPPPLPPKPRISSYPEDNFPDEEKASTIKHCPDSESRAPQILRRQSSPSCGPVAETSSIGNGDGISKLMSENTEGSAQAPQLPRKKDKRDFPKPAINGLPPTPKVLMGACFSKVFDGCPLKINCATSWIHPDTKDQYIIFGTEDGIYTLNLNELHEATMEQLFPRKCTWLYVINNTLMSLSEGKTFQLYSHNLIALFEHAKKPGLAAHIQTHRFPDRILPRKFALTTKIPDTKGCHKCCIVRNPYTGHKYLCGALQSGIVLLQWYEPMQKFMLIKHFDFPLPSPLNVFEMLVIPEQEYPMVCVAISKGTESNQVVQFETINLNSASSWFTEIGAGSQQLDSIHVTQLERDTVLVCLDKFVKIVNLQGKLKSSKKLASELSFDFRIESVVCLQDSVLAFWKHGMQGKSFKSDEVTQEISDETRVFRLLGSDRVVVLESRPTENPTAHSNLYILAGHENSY
UniProt O15525: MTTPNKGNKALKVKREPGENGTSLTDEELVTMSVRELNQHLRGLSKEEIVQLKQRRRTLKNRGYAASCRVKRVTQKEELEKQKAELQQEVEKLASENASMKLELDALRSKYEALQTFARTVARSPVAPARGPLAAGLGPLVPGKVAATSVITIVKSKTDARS
UniProt Q15759, whole entry, looked up: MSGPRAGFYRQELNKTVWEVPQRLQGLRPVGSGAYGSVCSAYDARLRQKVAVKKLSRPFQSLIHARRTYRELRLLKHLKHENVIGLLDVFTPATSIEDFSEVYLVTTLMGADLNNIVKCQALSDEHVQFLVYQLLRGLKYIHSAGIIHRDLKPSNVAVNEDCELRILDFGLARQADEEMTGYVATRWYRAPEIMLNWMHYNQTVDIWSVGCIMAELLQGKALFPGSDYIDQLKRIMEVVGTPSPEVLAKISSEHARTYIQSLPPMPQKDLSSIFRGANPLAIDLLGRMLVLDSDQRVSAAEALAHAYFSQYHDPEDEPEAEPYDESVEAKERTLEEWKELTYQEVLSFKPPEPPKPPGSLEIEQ
UniProt Q9NQ48: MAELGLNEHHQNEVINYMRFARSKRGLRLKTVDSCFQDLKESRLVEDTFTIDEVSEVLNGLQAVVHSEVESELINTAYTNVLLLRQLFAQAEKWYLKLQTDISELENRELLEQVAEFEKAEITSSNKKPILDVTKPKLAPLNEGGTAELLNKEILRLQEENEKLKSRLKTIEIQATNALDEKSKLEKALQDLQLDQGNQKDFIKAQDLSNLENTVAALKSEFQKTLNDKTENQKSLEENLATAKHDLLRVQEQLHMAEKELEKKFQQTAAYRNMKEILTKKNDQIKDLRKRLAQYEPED
UniProt P20645: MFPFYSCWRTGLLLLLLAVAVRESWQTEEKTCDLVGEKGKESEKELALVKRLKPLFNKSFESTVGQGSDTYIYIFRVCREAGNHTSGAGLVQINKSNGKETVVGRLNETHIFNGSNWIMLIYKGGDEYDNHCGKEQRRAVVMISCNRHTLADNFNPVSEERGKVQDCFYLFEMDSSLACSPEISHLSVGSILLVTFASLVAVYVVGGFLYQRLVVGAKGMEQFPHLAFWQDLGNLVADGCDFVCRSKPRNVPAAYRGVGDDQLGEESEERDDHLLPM
UniProt Q13257, whole entry, looked up: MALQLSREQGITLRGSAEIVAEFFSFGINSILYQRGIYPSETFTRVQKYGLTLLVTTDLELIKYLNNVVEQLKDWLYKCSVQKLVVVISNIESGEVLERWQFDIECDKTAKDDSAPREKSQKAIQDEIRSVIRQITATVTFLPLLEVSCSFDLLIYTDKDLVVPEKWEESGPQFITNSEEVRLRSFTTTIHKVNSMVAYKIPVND
UniProt Q9NQG1: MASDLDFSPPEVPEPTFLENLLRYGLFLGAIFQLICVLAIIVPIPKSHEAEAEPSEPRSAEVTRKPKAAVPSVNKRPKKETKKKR

Some of the results follow.

Compound in one assay: CC1=C(C=C(C=C1)NC(=O)C2=CC(=CC=C2)C(C)(C)C#N)NC3=CC4=C(C=C3)N=CN(C4=O)C
The assay is described as follows: log2 fold change, soluble protein after heating vs DMSO (PISA); higher = thermal stabilisation; K562 lysate, 10 uM; active = over 0.2 and 3.5 SD of the protein, either way, in both replicates (recomputed). Summed up:
(§1)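 Pellets of K562 cells were dounce-homogenised in PBS pH 7.4 with 1 mM MgCl2, and the crude extract was held at 1 mg/mL protein for a 30 min treatment with 10 μM compound. Aliquots were heated for 3 min over 48°C-58°C and pooled before NP-40 was added to 0.5% at 4°C. The supernatant from 21,000xg for 90 min was quantified by TMTpro 16plex LC-MS/MS with channel sums equalised. Values are reported from duplicates as log-two fold change in thermal stability relative to solvent controls.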
Take LUC7L3 (UniProt O95232): the log2 fold change is inactive: 0.03.

With MAP3K5 (UniProt Q99683), the log2 fold change was inactive: 0.204.

Take MACF1, A0A0A6YYJ5: the log2 fold change was inactive: 0.011.

Consider MAP4K3 (UniProt Q8IVH8), for which the log2 fold change was inactive: -0.067.

As for LTO1 (UniProt Q8WV07), the log2 fold change was inactive: -0.064.

With MANEA (UniProt Q5SRI9), the log2 fold change is inactive: 0.037.

Turning to MAPRE3 isoform 2 (UniProt Q9UPY8), the log2 fold change is inactive: -0.058.

Regarding LTBP4 (UniProt Q8N2S1), the log2 fold change is inactive: 0.011.

Consider MAP4K2 (UniProt Q12851), for which the log2 fold change is inactive: 0.058.

Turning to MAST2 (UniProt Q6P0Q8), the log2 fold change was inactive: 0.03.

With MAML1 (UniProt Q92585), the log2 fold change was inactive: -0.13.

As for MAP4 isoform 5 (UniProt P27816), the log2 fold change is inactive: 0.012.

Turning to MAP4K5 (UniProt Q9Y4K4), the log2 fold change is inactive: 0.

For the target MAPK12 (UniProt P53778), the log2 fold change was inactive: 0.002.

With MAP7 (UniProt Q14244), the log2 fold change is inactive: 0.07.

For the target MARF1 (UniProt Q9Y4F3), the log2 fold change was inactive: 0.004.

With MAN2B2 (UniProt Q9Y2E5), the log2 fold change is inactive: -0.013.

As for MAP4 (UniProt E7EVA0), the log2 fold change is inactive: 0.131.

As for MARCHF6 (UniProt O60337), the log2 fold change is inactive: 0.004.

In the case of MACF1 (UniProt E9PLY5), the log2 fold change was inactive: -0.055.

In the case of LZTS2 (UniProt Q9BRK4), the log2 fold change is inactive: 0.033.

Regarding LTBR (UniProt P36941), the log2 fold change was inactive: 0.124.

Take MAP7D3 (UniProt Q8IWC1): the log2 fold change was inactive: 0.046.

On to MAFG (UniProt O15525), for which the log2 fold change was inactive: -0.01.

On to MAPK11 (UniProt Q15759), for which the log2 fold change is inactive: 0.302.

Take MAGED1 isoform 2 (UniProt Q9Y5V3): the log2 fold change is inactive: 0.012.

Turning to LZTFL1 (UniProt Q9NQ48), the log2 fold change was inactive: -0.021.

Regarding M6PR (UniProt P20645), the log2 fold change is inactive: -0.014.

MAD2L1 (UniProt Q13257): the log2 fold change was inactive: 0.015.

Compound in another assay: CC1=C(C=C(C=C1)NC(=O)C2=CC(=CC=C2)N(C)C)NC(=O)C3=CC=C(C=C3)O
Described as above. Summed up: as §1
Regarding LUC7L3 (UniProt O95232), the log2 fold change is inactive: -0.015.

As to MAP3K5 (UniProt Q99683), the log2 fold change is inactive: 0.027.

Turning to MACF1, A0A0A6YYJ5, the log2 fold change is inactive: 0.011.

As for MAP4K3 (UniProt Q8IVH8), the log2 fold change is inactive: 0.129.

As to LTO1 (UniProt Q8WV07), the log2 fold change was inactive: -0.028.

Regarding MANEA (UniProt Q5SRI9), the log2 fold change is inactive: 0.114.

On to MAPRE3 isoform 2 (UniProt Q9UPY8), for which the log2 fold change is inactive: -0.14.

In the case of LTBP4 (UniProt Q8N2S1), the log2 fold change was inactive: -0.149.

Regarding MANBAL (UniProt Q9NQG1), the log2 fold change was inactive: 0.028.

In the case of MAP4K2 (UniProt Q12851), the log2 fold change is inactive: 0.209.

Consider MAST2 (UniProt Q6P0Q8), for which the log2 fold change was inactive: 0.031.

As for MAGI3 isoform 1 (UniProt Q5TCQ9), the log2 fold change is inactive: -0.02.

Consider MAML1 (UniProt Q92585), for which the log2 fold change was inactive: -0.138.

On to MAP4 isoform 5 (UniProt P27816), for which the log2 fold change is inactive: 0.082.

MAP4K5 (UniProt Q9Y4K4): the log2 fold change was inactive: 0.021.

MAPK12 (UniProt P53778): the log2 fold change was inactive: -0.012.

As for MARF1 (UniProt Q9Y4F3), the log2 fold change is inactive: 0.01.

With MAN2B2 (UniProt Q9Y2E5), the log2 fold change was inactive: -0.024.

As for MAP4 (UniProt E7EVA0), the log2 fold change was inactive: 0.005.

Take MAP4K4 isoform 6 (UniProt O95819): the log2 fold change is inactive: 0.002.

Turning to MAP7D3 (UniProt Q8IWC1), the log2 fold change was inactive: 0.087.

Regarding MAFG (UniProt O15525), the log2 fold change is inactive: -0.036.

MAPK11 (UniProt Q15759): the log2 fold change was inactive: -0.067.

Regarding MAGED1 isoform 2 (UniProt Q9Y5V3), the log2 fold change was inactive: 0.088.

Regarding LZTFL1 (UniProt Q9NQ48), the log2 fold change is inactive: 0.

Take M6PR (UniProt P20645): the log2 fold change is inactive: 0.03.

For MAD2L1 (UniProt Q13257), the log2 fold change was inactive: -0.018.

Compound in the next assay: CC1=CC=C(C=C1)SC2=C3C=C(SC3=CN=C2)C(=O)N
The assay is described as above. Summed up:
as §1
LUC7L3 (UniProt O95232): the log2 fold change was inactive: -0.044.

Take MAP3K5 (UniProt Q99683): the log2 fold change was inactive: 0.085.

As for MANEA (UniProt Q5SRI9), the log2 fold change was inactive: 0.068.

MAPRE3 isoform 2 (UniProt Q9UPY8): the log2 fold change is inactive: -0.039.

Turning to LTBP4 (UniProt Q8N2S1), the log2 fold change was inactive: -0.018.

For MANBAL (UniProt Q9NQG1), the log2 fold change was inactive: -0.045.

MAP4K2 (UniProt Q12851): the log2 fold change is inactive: -0.207.

For MAST2 (UniProt Q6P0Q8), the log2 fold change was inactive: -0.022.

Regarding MAGI3 isoform 1 (UniProt Q5TCQ9), the log2 fold change is inactive: 0.005.

Consider MAP4 isoform 5 (UniProt P27816), for which the log2 fold change was inactive: 0.047.

Consider MAP4K5 (UniProt Q9Y4K4), for which the log2 fold change was inactive: 0.025.

MAP7 (UniProt Q14244): the log2 fold change is inactive: 0.017.

On to MAN2B2 (UniProt Q9Y2E5), for which the log2 fold change was inactive: 0.012.

As for MAP4 (UniProt E7EVA0), the log2 fold change was inactive: -0.027.

For MARCHF6 (UniProt O60337), the log2 fold change was inactive: 0.032.

Consider MACF1 (UniProt E9PLY5), for which the log2 fold change is inactive: 0.022.

Consider MAP4K4 isoform 6 (UniProt O95819), for which the log2 fold change was inactive: 0.037.

In the case of LZTS2 (UniProt Q9BRK4), the log2 fold change was inactive: -0.038.

As for LTBR (UniProt P36941), the log2 fold change is inactive: -0.146.

As to MAP7D3 (UniProt Q8IWC1), the log2 fold change was inactive: -0.039.

In the case of MAFG (UniProt O15525), the log2 fold change was inactive: -0.117.

Consider MAPK11 (UniProt Q15759), for which the log2 fold change was inactive: -0.311.

MAGED1 isoform 2 (UniProt Q9Y5V3): the log2 fold change is inactive: 0.01.

For LY6E (UniProt Q16553), the log2 fold change was inactive: -0.042.

Regarding LZTFL1 (UniProt Q9NQ48), the log2 fold change was inactive: -0.007.

Turning to M6PR (UniProt P20645), the log2 fold change is inactive: -0.042.

Take MAD2L1 (UniProt Q13257): the log2 fold change is inactive: -0.004.
